Measured values reported in PubChem BioAssay AID2685 (National Center for Advancing Translational Sciences (NCATS), 2010).
This is one part of the list. These are further read-outs of the screen, such as a control signal, another cell line or another target. No call is given for them. Most of these compounds were active or inconclusive in the main read-out, so they are no random draw. Words in brackets tell the shape of the fitted curve; partial curves, single points and poor fits give uncertain potencies.

Assay: qHTS Assay for Lipid Storage Modulators in Drosophila S3 Cells;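 for cell number change: cells counted by Cell Tracker Red CMTPX staining in the red channel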
Conditions: BODIPY lipid droplet fluorescence, 18-24 h; for cell number change: measured here: cell count max response, cells fed with added oleic acid
How it was run: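 Drosophila S3 cells got compounds at several concentrations plus oleic acid (400 uM solution). Laser-scanning cytometry with 488 nm excitation read lipid droplets at 500-530 nm and cells at 575-640 nm. Percent activity was relative to 20 uM Triacsin C.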

[1] = measured here: lipid fluorescence (Fed channel) AC50, cells fed with added oleic acid
[2] = measured here: cell number channel AC50, cells fed with added oleic acid

Compound	cell number change [%]	AC50 [1]	AC50 [2]
COc1ccc(N2CC(C(=O)NCCC3=CCCCC3)CC2=O)cc1 (stereo unspecified)	-0.437	6.51 µM [falling, single point]	–
c1ccc(CSc2nnnn2-c2ccccc2)cc1	128	0.58 µM [falling, single point]	–
COc1ccc(N2CCN(C(=O)c3c(-c4c(F)cccc4Cl)noc3C)CC2)cc1	9.12	–	–
Cc1ccc(C)c(Cc2c(C)nc(C)[nH]c2=O)c1	-0.47	2.59 µM [rising, single point]	–
CCN1C(=O)/C(=C2\C=Cc3ccccc3N2CC)SC1=S	-57.2	–	2.59 µM [falling, partial curve, poor fit]
O=C(O)c1ccc(-c2sc(Nc3ccccc3)n[n+]2-c2ccc(F)cc2)cc1	–	29.1 µM [rising, single point]	–
COc1ccc(N2CCN(C(=O)Cc3cccs3)CC2)cc1	30.6	–	29.1 µM [rising, single point]
CCC(NC(=O)Nc1nnc(C(F)(F)F)s1)(C(F)(F)F)C(F)(F)F	–	5.8 µM [falling, single point]	–
COc1cccc(/C=N/Nc2nc(Nc3ccc([N+](=O)[O-])cc3)nc(N3CCCC3)n2)c1O	-44.7	–	29.1 µM [falling, single point]
CCN(CC(=O)NCc1ccc(Cl)cc1)CC(=O)NC1(C#N)CCCC1	10.9	29.1 µM [rising, single point]	–
NC(=O)COC(=O)CC1CC2CCC1C2 (stereo unspecified)	14.1	–	–
CCC(C)(C)NC(=O)CN(C(=O)CCC(=O)Nc1nccs1)c1ccc2c(c1)OCO2	23	–	1.84 µM [rising, full curve, poor fit]
COc1ccc(-c2cc(C(=O)N(C)CC(=O)Nc3ccccc3Cl)c3ccccc3n2)cc1OC	-12.6	1.46 µM [rising, partial curve]	–
CCOC(=O)C(CC)n1cnc2c(nnn2-c2ccc(C)cc2)c1=O (stereo unspecified)	0.817	6.51 µM [rising, full curve, poor fit]	–
CC(=O)Nc1nc(CCN2C(=O)c3ccccc3C2=O)cs1	-7.56	6.51 µM [rising, single point]	–
CC1CCc2sc(C(=O)NNC(=O)c3ccncc3)cc2C1 (stereo unspecified)	–	6.51 µM [rising, single point]	–
O=C(Cc1ccccc1)N/N=C/c1cccs1	-28.5	1.3 µM [falling, full curve, poor fit]	0.461 µM [falling, full curve, poor fit]
Cc1nc2c(sc3nc4c(cc32)COC(C)(C)C4)c(=O)n1Cc1ccccc1	79.7	0.366 µM [rising, full curve]	5.8 µM [rising, partial curve, poor fit]

Compound	cell number change [%]	AC50 [1]	AC50 [2]
COc1ccc(CCN(C)C2CCCN(C(=O)c3sccc3C)C2)cc1OC (stereo unspecified)	-10.9	–	–
COc1cc(C(C)=O)ccc1Oc1ncnc2c1cnn2-c1cccc(Cl)c1	19.2	2.91 µM [rising, full curve]	0.103 µM [rising, full curve, poor fit]
Cc1ccccc1CC(=O)Nc1ccc(C(=O)N2CCCC2)cc1	-19.6	2.59 µM [falling, full curve, poor fit]	–
CCN(CC(=O)Nc1cccc(OC)c1)CC(=O)Nc1ccc(Br)c(C)c1	-29.2	–	–
O=C1CC(=C(c2ccccc2)c2ccccc2)C(=O)N1CCCCN1CCN(c2ccccc2)CC1	-2.5	–	–
COC(=O)C1CCN(C(=O)Cc2c(OC)ccc3cc(Br)ccc23)CC1	-68.1	29.1 µM [falling, single point]	29.1 µM [falling, single point]
O=C(Nc1ccc([N+](=O)[O-])cc1)OCCc1ccccn1	–	0.517 µM [rising, full curve]	0.82 µM [rising, full curve, poor fit]
CC12CCC(C(=O)NCC3CCCO3)(OC1=O)C2(C)C (stereo unspecified)	5.94	0.82 µM [falling, partial curve]	–
COc1ccc(-c2nc3ccc(C(=O)NCC(OC)OC)cc3nc2-c2ccc(OC)c(OC)c2)cc1OC	-14	1.84 µM [falling, full curve, poor fit]	–
O=C(NC(Cc1ccccc1)c1nc2ccccc2[nH]1)C1CC(=O)N(c2ccc3c(c2)OCCO3)C1 (stereo unspecified)	-8.19	0.116 µM [rising, single point]	–
CCC(c1nnnn1Cc1ccc(F)cc1)N1CCN(C2CCCCC2)CC1 (stereo unspecified)	-31.3	29.1 µM [falling, partial curve]	4.11 µM [falling, full curve]
CCN1C(=O)[C@H]2[C@@H](c3ccc(-c4ccc(Cl)c(Cl)c4)cc3)N3CCCC[C@@]3(C(=O)OC)[C@H]2C1=O	-25.1	0.411 µM [rising, single point]	0.461 µM [falling, full curve, poor fit]
CCOC(=O)C1CCN(C(=O)c2cccc(NS(=O)(=O)c3ccc(F)c(F)c3)c2)CC1	28.8	20.6 µM [rising, single point]	–
O=C(NC1CCCCC1)c1cc(C2CC2)nn1-c1ccccc1	6.58	3.26 µM [falling, single point]	3.26 µM [falling, single point]
CCC1(c2ccc(C)cc2)NC(=O)N(CC(=O)Nc2cccc(S(=O)(=O)N3CCCC3)c2)C1=O (stereo unspecified)	-47.4	5.17 µM [falling, single point]	16.4 µM [falling, single point]
CC(=O)Nc1ccc(NC(=O)Nc2ccc(C)cc2C)cc1	-39.1	0.461 µM [falling, full curve]	0.731 µM [falling, full curve]
Cc1occc1-c1nnc(SCC(=O)Nc2ccccc2-c2ccccc2)n1C	-10.9	–	–
Cc1cc(C)cc(OCC(=O)Nc2cccc(-c3nc4ncccc4o3)c2)c1	–	0.0517 µM [rising, full curve, poor fit]	–

Exported field by field: part of the list above
COc1cc(C(C)=O)ccc1Oc1ncnc2c1cnn2-c1cccc(Cl)c1
  cell number change [%]: 19.2
  AC50 [1]: 2.91 µM [rising, full curve]
  AC50 [2]: 0.103 µM [rising, full curve, poor fit]
Cc1ccccc1CC(=O)Nc1ccc(C(=O)N2CCCC2)cc1
  cell number change [%]: -19.6
  AC50 [1]: 2.59 µM [falling, full curve, poor fit]
